We go through one molecule from US20190330332A1, “Hypothermia Ameliorating Agent” (Kao Corporation, priority 2016, published 2019).

The experiment addresses GIP(1-42) (active GIP). As to the kind of experiment: sandwich ELISA; anti-total GIP monoclonal antibody as capture, biotinylated anti-active GIP antibody at 1 ug/mL as detector. (In general: An ELISA detects its analyte on a solid surface through an enzyme-linked reagent.)

No constants are given. Whether binding was seen depends on the method and setting. Some entries that bind do so weakly or less than the wild type. Ends that are not written are not given here.

B1: anti-active GIP monoclonal antibody produced by hybridoma 9B9H5-B9 line (Production Example 1) (antibody, V domains shown)
VH: QVQLQQPGAELVKPGASVKLSCKASGYTFTSFWMHWVIQRPGQGLEWIGEMNPSDGRTHFNEKFKTKATLTIDTSSNTAYMELNSLTSEDSAVYYCARRMEDWGQGTLVTVSA
VL: DIKMTQSPSSMYASLGERVTITCKASQDINSYLGWFQQKPGKSPKTLIYGANRLVDGVPSRFSGSGSGQDYSLTISSLEYDDMGIYYCLQYDEFPLTFGAGTKLELKR
notes: in the screening and cloning ELISA it was hybridoma culture supernatant; also called anti-active GIP antibody
Regarding B1, the binding entry is given as “binds”.
